{"source": "PubChem BioAssay AID602196 (INSERM, 2012)", "purpose": "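Genes whose knock-down alters cisplatin killing of lung cancer cells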", "cells": "human A549 lung cancer cells", "reagents": "siRNA pair against human genes", "duration": "48 h transfection before cisplatin; time from cisplatin to read-out not stated", "treatment": "cisplatin at a dose killing half of control-siRNA cells; exact dose and duration not given", "measurement": "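Cisplatin cell death as a shift from the 50% death seen with control siRNA; siRNAs toxic or growth-blocking alone scored 0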", "reading the numbers": "two-siRNA summed score (-2 to +2): higher = both siRNAs protect from cisplatin killing; -2 means both sensitise", "call rule": "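Each siRNA scores 0 if harmful alone by LDH or WST-1, otherwise +1 if it reduces and -1 if it increases cisplatin killing; a gene is active when both siRNAs agree (sum +2 or -2)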", "meaning of the calls": "active = both siRNAs shift cisplatin killing the same way; inactive = no consistent shift, or siRNA harmful alone", "note": "The deposit covers about 23,000 reagents; below is an unselected part. Over the whole deposit, 455 (2%) got an active call. 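Active includes both protection and sensitisation; some change values fall well beyond the stated -50 to +50 range.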 The numbers tell different reagents against one gene apart. Further read-outs or replicates are left out here. Not stated in the record: the amount of reagent."}
{"gene": "NFRKB (GeneID 4798)", "reagent no.": 1, "two-siRNA summed score (-2 to +2)": 0, "Call": "inactive"}
{"gene": "LINC01102 (GeneID 150568)", "reagent no.": 1, "two-siRNA summed score (-2 to +2)": 0, "Call": "inactive"}
{"gene": "LOC441306", "reagent no.": 1, "two-siRNA summed score (-2 to +2)": 0, "Call": "inactive"}
{"gene": "CAMSAP2 (GeneID 23271)", "reagent no.": 1, "two-siRNA summed score (-2 to +2)": 0, "Call": "inactive"}
{"gene": "KMT2B (GeneID 9757)", "reagent no.": 1, "two-siRNA summed score (-2 to +2)": 0, "Call": "inactive"}
{"gene": "TP53TG3 (GeneID 24150)", "reagent no.": 1, "two-siRNA summed score (-2 to +2)": 1, "Call": "inactive"}
{"gene": "GPR153 (GeneID 387509)", "reagent no.": 1, "two-siRNA summed score (-2 to +2)": 1, "Call": "inactive"}
{"gene": "PLAU (GeneID 5328)", "reagent no.": 1, "two-siRNA summed score (-2 to +2)": 1, "Call": "inactive"}
{"gene": "LINC00319 (GeneID 284836)", "reagent no.": 1, "two-siRNA summed score (-2 to +2)": 0, "Call": "inactive"}
{"gene": "PTPRD (GeneID 5789)", "reagent no.": 1, "two-siRNA summed score (-2 to +2)": 0, "Call": "inactive"}
{"gene": "LSP1 (GeneID 4046)", "reagent no.": 1, "two-siRNA summed score (-2 to +2)": 0, "Call": "inactive"}
{"gene": "LSP1 (GeneID 4046)", "reagent no.": 2, "two-siRNA summed score (-2 to +2)": 0, "Call": "inactive"}

Individual results from above:
Under “Call”, CAMSAP2 (GeneID 23271) shows inactive
Entry for LINC00319 (GeneID 284836) in “Call”: inactive
